The name of at least one read-out is uncertain. Some entries repeat one wording, which the source may state once for all of them.
What follows are molecules tested on DROSME, AEDSAE, or LAPHEG (Drosophila melanogaster, Aedes aegypti, Spodoptera exigua) (assay: Insecticidal activity, diet/water plate tests). Conditions: any of DROSME (80 μg/well), AEDSAE (6 μg/well), LAPHEG (12 μg/well) controlled at 80% or more.
Assay type: in vivo

Structure (SMILES)	Activity against insects
CC(CNc1ncnc2c(F)ccc(F)c12)c1ccc(Oc2cnccc2C(F)(F)F)cc1 (centres unmarked) [Compound 141]	+ (“+” indicates activity)
CC(CNc1ncnc2c(F)ccc(F)c12)c1ccc(Oc2cc(C(F)(F)F)ncn2)cc1 (centres unmarked) [Compound 142]	+ (“+” indicates activity)
CC(CNc1ncnc2c(F)ccc(F)c12)c1ccc(Oc2ccc(C(F)(F)F)cn2)cc1 (centres unmarked) [Compound 143]	+ (“+” indicates activity)
CC(CNc1ncnc2c(F)ccc(F)c12)c1ccc(Oc2cc(C(F)(F)F)ccn2)cc1 (centres unmarked) [Compound 144]	+ (“+” indicates activity)
CC(CNc1ncnc2c(F)ccc(F)c12)c1ccc(Oc2ncc(C(F)(F)F)cc2F)cc1 (centres unmarked) [Compound 145]	+ (“+” indicates activity)

Reference: patent US9000162B2, “5,8-difluoro-4-(2-(4-(heteroaryloxy)-phenyl)ethylamino)quinazolines and their use as agrochemicals” (Dow AgroSciences LLC, priority 2008, dated 2015)
